Data: PubChem BioAssay AID493014 (National Center for Advancing Translational Sciences (NCATS), 2011)
Some of the results follow. Shown are side measurements of this screen, not its main read-out; they come without a call. The list favours compounds with an active or inconclusive main result. Words in brackets tell the shape of the fitted curve; partial curves, single points and poor fits give uncertain potencies.

Test: qHTS Assay to Find Inhibitors of Chronic Active B-Cell Receptor Signaling
Details: ABC-DLBCL IkBa-CBG/CBR reporter, luminescence ratio (green luciferase fused to IkBa over red control in TMD8 lymphoma cells), 4 h
Procedure, shortened: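 TMD8 human ABC-DLBCL cells with doxycycline-inducible IκBα–green luciferase fusion and unfused red luciferase, in 0.5% FBS medium; compounds up to 46 uM, 4 h at 37C. Green/red luminescence ratio, filter-overlap corrected, fitted to concentration-response curves.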

[1] = measured here: CBR red luminescence, cell number

## Cc1[nH]n(-c2ccccc2)c(=O)c1C(=O)c1ccccc1
[1]
  AC50: 35.5 µM [falling, single point]

## Cc1ccc(-c2csc(Nc3ccc(C(=O)O)cc3)[n+]2Cc2ccccc2)cc1
[1]
  AC50: 15.8 µM [falling, partial curve]

## CCOC(=O)c1c(CN(CC)CC)oc2cc(Br)c(O)cc12
[1]
  AC50: 32.6 µM [rising, single point]

## Cc1ccc(C)c(-c2csc(NC(=O)c3cnccn3)n2)c1
[1]
  AC50: 0.794 µM [rising, full curve, poor fit]

## Cc1cc(C)n(C(=O)CCC2COc3ccccc3O2)n1 (configuration not stated)
[1]
  AC50: 13 µM [rising, partial curve, poor fit]

## Cc1csc(Nc2ccccc2)[n+]1C
[1]
  AC50: 2.82 µM [rising, partial curve]

## CCc1c(C(=O)NNC(=S)NC2CCCCC2)csc1C
[1]
  AC50: 3.16 µM [falling, partial curve]

## COc1cc(C(=O)N=c2sc3ccccc3n2C)cc(OC)c1OC
[1]
  AC50: 10 µM [rising, partial curve, poor fit]

## O=C(N/N=C1\CCc2ccccc21)c1ccccc1O
[1]
  AC50: 0.146 µM [falling, full curve]

## CCCCCCC(=O)Nc1nc(C)c(-c2csc(Nc3cccc(OC)c3)n2)s1
[1]
  AC50: 12.6 µM [falling, partial curve, poor fit]

## N/C(CSc1ccc(Cl)cc1)=N\S(=O)(=O)c1ccc(Cl)cc1
[1]
  AC50: 17.8 µM [falling, partial curve, poor fit]

## CCOc1ccccc1COC(=O)c1cccc(-n2cnnn2)c1
[1]
  AC50: 7.08 µM [falling, full curve, poor fit]

## O=C(COC(=O)c1ccc2ccccc2c1)Nc1ncc(C(F)(F)F)cc1Cl
[1]
  AC50: 18.4 µM [rising, partial curve, poor fit]

## COc1ccc(/C=N/Nc2nc(-c3cccnc3)nc3ccccc23)cc1OC
[1]
  AC50: 15.8 µM [falling, partial curve, poor fit]

## COC(=O)CCCCCCCC(=O)Nc1nnc(C(F)(F)F)s1
[1]
  AC50: 7.08 µM [falling, partial curve, poor fit]

## Cc1onc(-c2ccccc2)c1-c1csc(COc2ccccc2)n1
[1]
  AC50: 22.4 µM [rising, single point]

## CC(=O)Nc1sc(N/N=C\c2ccccc2F)nc1-c1cccs1
[1]
  AC50: 20.6 µM [falling, single point]

## CCN(CC(=O)Nc1ccc(NC(C)=O)cc1)C(=O)CSCC(=O)Nc1ccc(C)cc1
[1]
  AC50: 4.11 µM [rising, full curve, poor fit]

## CCSc1cc(C)nc2c(-c3ccccc3)c(C)nn12
[1]
  AC50: 8.2 µM [rising, partial curve]

## COc1ccc(CCCC(=O)NCCc2ccccc2)c(C)c1
[1]
  AC50: 11.2 µM [rising, partial curve, poor fit]

## C/C(=N\Nc1c(F)c(F)c(Br)c(F)c1F)c1ccncc1
[1]
  AC50: 2.24 µM [rising, partial curve, poor fit]

## O=C(Nc1cccc(CNCCc2c[nH]c3ccccc23)c1)c1ccccc1Cl
[1]
  AC50: 8.91 µM [falling, partial curve, poor fit]

## Clc1ccc(CN2C3=NCCCN3c3ccccc32)cc1Cl
[1]
  AC50: 35.5 µM [falling, single point]

## CCn1ccnc1CN(C)Cc1cn(-c2ccc(C)cc2)nc1-c1cccc(C)c1
[1]
  AC50: 35.5 µM [falling, single point]

## O=C(Cc1c(Sc2ccccc2)c2ccccc2n1Cc1ccccc1)NCCO
[1]
  AC50: 29.1 µM [falling, single point]

## N#Cc1ccsc1NC(=O)CSc1ncnc2ccccc12
[1]
  AC50: 18.4 µM [falling, partial curve, poor fit]

## CN1CCN(C(=O)c2cnn3c(C(F)(F)F)cc(-c4cccs4)nc23)CC1
[1]
  AC50: 0.103 µM [rising, full curve]

## CN1/C(=C\C=Nc2ccc3ccccc3c2)C(C)(C)c2ccccc21
[1]
  AC50: 10 µM [falling, partial curve]

## Nc1ccc(NC(=O)Nc2ccc(N)cc2)cc1
[1]
  AC50: 11.2 µM [falling, partial curve, poor fit]

## C=CCn1c(SCC(=O)N(C)C)nc2cc(C(=O)O)ccc2c1=O
[1]
  AC50: 28.2 µM [falling, single point]

## CC(C)N(Cc1cnn(C)c1)Cc1nc(Cc2ccccc2Cl)no1
[1]
  AC50: 0.398 µM [rising, full curve, poor fit]

## O=C(COc1ccc2c(-c3ccccc3)cc(=O)oc2c1)NCC1CCC(C(=O)O)CC1 (configuration not stated)
[1]
  AC50: 7.08 µM [rising, partial curve, poor fit]

## CCOC(=O)CNS(=O)(=O)c1cc(-c2nn(C)c(=O)c3ccccc23)ccc1C
[1]
  AC50: 31.6 µM [falling, single point]

## Cc1ccc(S(=O)(=O)N2CCN(C(=O)C(C)Cn3nc(C)c(C)c3C)CC2)cc1C (configuration not stated)
[1]
  AC50: 0.0891 µM [falling, full curve, poor fit]

## COc1ccc(S(=O)(=O)Nc2cccc(-c3ccc4nncn4n3)c2)cc1
Measured here: IkBa-CBG green luminescence
  AC50: 18.4 µM [falling, single point]

## COc1ccc(C2C(C(=O)c3sc(C)nc3C)=C(O)C(=O)N2CCN(C)C)cc1OC (configuration not stated)
[1]
  AC50: 5.8 µM [falling, single point]

## Cc1ccc(C2C=C(c3ccccc3OC(F)F)Nc3ncnn32)cc1 (configuration not stated)
[1]
  AC50: 4.61 µM [falling, partial curve, poor fit]

## O=C(Nc1cccc(Cl)c1)NC1CC2CCC(C1)N2Cc1cccs1 (configuration not stated)
[1]
  AC50: 35.5 µM [rising, single point]

## Cc1nc(C)c(/C(O)=C/c2nc3ccccc3oc2=O)s1
[1]
  AC50: 4.61 µM [falling, full curve, poor fit]

## Cc1ccc(S(=O)(=O)c2c(C)nn(C(C)(C)C)c2OC(=O)c2ccco2)cc1
[1]
  AC50: 25.1 µM [falling, single point]

## O=C(CSc1nnnn1C1CCCC1)N1CCN(C(=O)c2ccco2)CC1
[1]
  AC50: 29.1 µM [rising, single point]

## CCOC(=O)N1CCN(C(=O)COc2cccc3c2CCN(Cc2ccc(F)cc2)C3=O)CC1
[1]
  AC50: 13 µM [falling, partial curve, poor fit]
